Reference: article PMC10036822
Results are given in words; binding and its absence hold for the method and conditions named. Binding seen in cells or lysates may run through a third protein. Some entries that bind do so weakly or less than the wild type.

Protein sequences, listed by entry. Tags and fused reporters are not part of them.
UniProt P42224: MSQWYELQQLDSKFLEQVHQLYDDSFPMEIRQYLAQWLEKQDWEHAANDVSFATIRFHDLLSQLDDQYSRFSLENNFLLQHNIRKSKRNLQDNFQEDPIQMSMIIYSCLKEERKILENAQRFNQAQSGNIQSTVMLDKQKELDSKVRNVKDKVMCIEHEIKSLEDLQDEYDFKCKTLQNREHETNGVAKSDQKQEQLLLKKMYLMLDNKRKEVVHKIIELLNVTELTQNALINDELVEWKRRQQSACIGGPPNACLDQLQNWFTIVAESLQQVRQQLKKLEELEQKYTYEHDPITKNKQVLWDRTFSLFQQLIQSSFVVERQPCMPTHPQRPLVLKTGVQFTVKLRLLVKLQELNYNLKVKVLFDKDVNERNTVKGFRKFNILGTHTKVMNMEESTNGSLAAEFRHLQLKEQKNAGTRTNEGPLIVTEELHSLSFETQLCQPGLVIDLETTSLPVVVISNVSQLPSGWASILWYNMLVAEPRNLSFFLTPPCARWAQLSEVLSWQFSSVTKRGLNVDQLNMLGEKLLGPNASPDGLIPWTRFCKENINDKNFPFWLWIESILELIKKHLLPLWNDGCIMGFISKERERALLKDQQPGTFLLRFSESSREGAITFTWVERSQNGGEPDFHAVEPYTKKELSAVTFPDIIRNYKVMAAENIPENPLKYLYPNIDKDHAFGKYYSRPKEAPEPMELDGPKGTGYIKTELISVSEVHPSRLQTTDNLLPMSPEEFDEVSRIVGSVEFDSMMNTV

Target: signal transducer and activator of the transcription (STAT)1 (UniProt P42224)
Assay: co-IP; HEK293T cells transfected with the indicated plasmids for 48-72 h (MKRN2 or STAT1 overexpressed); lysed in IP buffer (Tris, EDTA, NaCl, glycerol, NP40), antibodies at 4°C overnight, agarose beads 4-6 h at 4°C; blot

binding: binds
B1: Makorin-2 (protein, UniProt Q9H000 1-416)
chain: MSTKQITCRYFMHGVCREGSQCLFSHDLANSKPSTICKYYQKGYCAYGTRCRYDHTRPSAAAGGAVGTMAHSVPSPAFHSPHPPSEVTASIVKTNSHEPGKREKRTLVLRDRNLSGMAERKTQPSMVSNPGSCSDPQPSPEMKPHSYLDAIRSGLDDVEASSSYSNEQQLCPYAAAGECRFGDACVYLHGEVCEICRLQVLHPFDPEQRKAHEKICMLTFEHEMEKAFAFQASQDKVCSICMEVILEKASASERRFGILSNCNHTYCLSCIRQWRCAKQFENPIIKSCPECRVISEFVIPSVYWVEDQNKKNELIEAFKQGMGKKACKYFEQGKGTCPFGSKCLYRHAYPDGRLAEPEKPRKQLSSQGTVRFFNSVRLWDFIENRESRHVPNNEDVDMTELGDLFMHLSGVESSEP
